Measured values reported in article PMC9772228, “Structure of a RecT/Redβ family recombinase in complex with a duplex intermediate of DNA annealing”.
Residue numbers refer to the chain shown, from its start. For some assays here: A weaker result is weaker than the reference pair of the same experiment. Tags and fusion partners may be left off the protein sequences shown. For some assays here: For at least one entry, the source does not settle the construct or the ends of the probe. For some assays here: At least one verdict rests on a figure or table, not on a statement of the authors.

What was measured:
Experiment in all cases: EMSA
[1] = target: T1, LiRecT L118A (Listeria innocua CLIP 11262) (UniProt Q92FL9); details: EMSA: PBS pH 7.4 (or KH2PO4/10 mM MgCl2 pH 6.0), 3.6 or 5 uM protein, 25 uM nt DNA, 37 C 15 min per strand, 0.8% agarose 1x TBE, recombinant protein, residues 1-271, protein details: N-terminal 6His vector tag (20 aa) retained
T1 sequence (looked up): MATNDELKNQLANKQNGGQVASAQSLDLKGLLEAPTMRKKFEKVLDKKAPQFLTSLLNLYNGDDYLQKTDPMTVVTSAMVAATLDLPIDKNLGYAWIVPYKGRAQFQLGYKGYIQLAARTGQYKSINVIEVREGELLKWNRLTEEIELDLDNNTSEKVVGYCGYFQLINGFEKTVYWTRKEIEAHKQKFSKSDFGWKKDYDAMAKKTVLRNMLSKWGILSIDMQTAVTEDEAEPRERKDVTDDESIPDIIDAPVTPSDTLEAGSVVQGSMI

[2] = target: T2, LiRecT V98A (Listeria innocua CLIP 11262) (UniProt Q92FL9); details: EMSA: PBS pH 7.4 (or KH2PO4/10 mM MgCl2 pH 6.0), 3.6 or 5 uM protein, 25 uM nt DNA, 37 C 15 min per strand, 0.8% agarose 1x TBE; recombinant protein; residues 1-271; protein details: N-terminal 6His vector tag (20 aa) retained; label: 5'-Cy3,5'-Cy5
T2 sequence (looked up): T1 sequence (looked up) with V98A, A118L

[3] = target: T3, LiRecT F171A (Listeria innocua CLIP 11262) (UniProt Q92FL9); details: EMSA: PBS pH 7.4 (or KH2PO4/10 mM MgCl2 pH 6.0), 3.6 or 5 uM protein, 25 uM nt DNA, 37 C 15 min per strand, 0.8% agarose 1x TBE, recombinant protein, residues 1-271, protein details: N-terminal 6His vector tag (20 aa) retained
T3 sequence (looked up): T1 sequence (looked up) with A118L, F171A

[4] = target: T4, LiRecT K215A (Listeria innocua CLIP 11262) (UniProt Q92FL9); details: EMSA: PBS pH 7.4 (or KH2PO4/10 mM MgCl2 pH 6.0), 3.6 or 5 uM protein, 25 uM nt DNA, 37 C 15 min per strand, 0.8% agarose 1x TBE, recombinant protein, residues 1-271, protein details: N-terminal 6His vector tag (20 aa) retained
T4 sequence (looked up): T1 sequence (looked up) with A118L, K215A

[5] = target: T5, LiRecT H185A (Listeria innocua CLIP 11262) (UniProt Q92FL9); details: EMSA: PBS pH 7.4 (or KH2PO4/10 mM MgCl2 pH 6.0), 3.6 or 5 uM protein, 25 uM nt DNA, 37 C 15 min per strand, 0.8% agarose 1x TBE, recombinant protein, residues 1-271, protein details: N-terminal 6His vector tag (20 aa) retained
T5 sequence (looked up): T1 sequence (looked up) with A118L, H185A

[6] = target: T6, LiRecT K206A (Listeria innocua CLIP 11262) (UniProt Q92FL9); details: EMSA: PBS pH 7.4 (or KH2PO4/10 mM MgCl2 pH 6.0), 3.6 or 5 uM protein, 25 uM nt DNA, 37 C 15 min per strand, 0.8% agarose 1x TBE, recombinant protein, residues 1-271, protein details: N-terminal 6His vector tag (20 aa) retained
T6 sequence (looked up): T1 sequence (looked up) with A118L, K206A

[7] = target: T7, LiRecT I218A (Listeria innocua CLIP 11262) (UniProt Q92FL9); details: EMSA: PBS pH 7.4 (or KH2PO4/10 mM MgCl2 pH 6.0), 3.6 or 5 uM protein, 25 uM nt DNA, 37 C 15 min per strand, 0.8% agarose 1x TBE, recombinant protein, residues 1-271, protein details: N-terminal 6His vector tag (20 aa) retained
T7 sequence (looked up): T1 sequence (looked up) with A118L, I218A

[8] = target: T8, λ-Redβ (bacteriophage lambda) (UniProt P03698); details: EMSA: PBS pH 7.4 (or KH2PO4/10 mM MgCl2 pH 6.0), 3.6 or 5 uM protein, 25 uM nt DNA, 37 C 15 min per strand, 0.8% agarose 1x TBE; recombinant protein; label: 5'-Cy3; single-stranded DNA
T8 sequence (looked up, limits assumed): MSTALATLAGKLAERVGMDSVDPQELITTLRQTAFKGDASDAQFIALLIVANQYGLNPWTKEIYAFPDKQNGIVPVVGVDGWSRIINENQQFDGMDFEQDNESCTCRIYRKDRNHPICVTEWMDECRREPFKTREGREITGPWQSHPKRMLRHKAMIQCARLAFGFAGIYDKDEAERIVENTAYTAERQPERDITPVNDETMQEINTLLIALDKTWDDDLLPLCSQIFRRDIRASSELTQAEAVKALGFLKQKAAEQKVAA

[9] = label: 5'-Cy5, single-stranded DNA
[10] = label: 5'-Cy3, single-stranded DNA

“GCGGATGGCTTAGAGCAGAATCGCCCTGCATAGCTCGATTTTTGCGGATG / CCATCCGCAAAAATCGAGCTATGCAGGGCGATTCTGCTCTAAGCCATCCG [50-mer duplex intermediate (sequential addition)]”: binds ([1]; label: 5'-Cy3,5'-Cy5); binds more weakly [2]; binds ([3]; label: 5'-Cy3,5'-Cy5). “GCGGATGGCTTAGAGCAGAATCGCCCTGCATAGCTCGATTTTTGCGGATG / CCATCCGCAAAAATCGAGCTATGCAGGGCGATTCTGCTCTAAGCCATCCG [50-mer duplex intermediate (sequential addition)]”: binds ([4]; label: 5'-Cy3,5'-Cy5); binds ([5]; label: 5'-Cy3,5'-Cy5); binds ([6]; label: 5'-Cy3,5'-Cy5). “GCGGATGGCTTAGAGCAGAATCGCCCTGCATAGCTCGATTTTTGCGGATG / CCATCCGCAAAAATCGAGCTATGCAGGGCGATTCTGCTCTAAGCCATCCG [50-mer duplex intermediate (sequential addition)]”: binds ([7]; label: 5'-Cy3,5'-Cy5).

“CCATCCGCAAAAATCGAGCTATGCAGGGCGATTCTGCTCTAAGCCATCCG [Cy5-50mer]”: binds [1, 9]; binds [3, 9]; binds [4, 9]. “CCATCCGCAAAAATCGAGCTATGCAGGGCGATTCTGCTCTAAGCCATCCG [Cy5-50mer]”: binds [5, 9]; binds [6, 9]; binds [7, 9].

“GCGGATGGCTTAGAGCAGAATCGCCCTGCATAGCTCGATTTTTGCGGATG [Cy3-50mer]”: binds more weakly [8]; binds [1, 10]; binds [3, 10]. “GCGGATGGCTTAGAGCAGAATCGCCCTGCATAGCTCGATTTTTGCGGATG [Cy3-50mer]”: binds [4, 10]; binds [5, 10]; binds [6, 10]. “GCGGATGGCTTAGAGCAGAATCGCCCTGCATAGCTCGATTTTTGCGGATG [Cy3-50mer]”: binds [7, 10].
